Results: paper PMC7956269
No constants are given. Whether binding was seen depends on the method and setting. Binding seen in cells or lysates may run through a third protein. A yes stands for co-enrichment or nearness to the bait. Other partners may have been found.

B1: Tcof1 (protein, UniProt Q13428 1-1488)
chain: MAEARKRRELLPLIYHHLLRAGYVRAAREVKEQSGQKCFLAQPVTLLDIYTHWQQTSELGRKRKAEEDAALQAKKTRVSDPISTSESSEEEEEAEAETAKATPRLASTNSSVLGADLPSSMKEKAKAETEKAGKTGNSMPHPATGKTVANLLSGKSPRKSAEPSANTTLVSETEEEGSVPAFGAAAKPGMVSAGQADSSSEDTSSSSDETDVEGKPSVKPAQVKASSVSTKESPARKAAPAPGKVGDVTPQVKGGALPPAKRAKKPEEESESSEEGSESEEEAPAGTRSQVKASEKILQVRAASAPAKGTPGKGATPAPPGKAGAVASQTKAGKPEEDSESSSEESSDSEEETPAAKALLQAKASGKTSQVGAASAPAKESPRKGAAPAPPGKTGPAVAKAQAGKREEDSQSSSEESDSEEEAPAQAKPSGKAPQVRAASAPAKESPRKGAAPAPPRKTGPAAAQVQVGKQEEDSRSSSEESDSDREALAAMNAAQVKPLGKSPQVKPASTMGMGPLGKGAGPVPPGKVGPATPSAQVGKWEEDSESSSEESSDSSDGEVPTAVAPAQEKSLGNILQAKPTSSPAKGPPQKAGPVAVQVKAEKPMDNSESSEESSDSADSEEAPAAMTAAQAKPALKIPQTKACPKKTNTTASAKVAPVRVGTQAPRKAGTATSPAGSSPAVAGGTQRPAEDSSSSEESDSEEEKTGLAVTVGQAKSVGKGLQVKAASVPVKGSLGQGTAPVLPGKTGPTVTQVKAEKQEDSESSEEESDSEEAAASPAQVKTSVKKTQAKANPAAARAPSAKGTISAPGKVVTAAAQAKQRSPSKVKPPVRNPQNSTVLARGPASVPSVGKAVATAAQAQTGPEEDSGSSEEESDSEEEAETLAQVKPSGKTHQIRAALAPAKESPRKGAAPTPPGKTGPSAAQAGKQDDSGSSSEESDSDGEAPAAVTSAQVIKPPLIFVDPNRSPAGPAATPAQAQAASTPRKARASESTARSSSSESEDEDVIPATQCLTPGIRTNVVTMPTAHPRIAPKASMAGASSSKESSRISDGKKQEGPATQVSKKNPASLPLTQAALKVLAQKASEAQPPVARTQPSSGVDSAVGTLPATSPQSTSVQAKGTNKLRKPKLPEVQQATKAPESSDDSEDSSDSSSGSEEDGEGPQGAKSAHTLGPTPSRTETLVEETAAESSEDDVVAPSQSLLSGYMTPGLTPANSQASKATPKLDSSPSVSSTLAAKDDPDGKQEAKPQQAAGMLSPKTGGKEAASGTTPQKSRKPKKGAGNPQASTLALQSNITQCLLGQPWPLNEAQVQASVVKVLTELLEQERKKVVDTTKESSRKGWESRKRKLSGDQPAARTPRSKKKKKLGAGEGGEASVSPEKTSTTSKGKAKRDKASGDVKEKKGKGSLGSQGAKDEPEEELQKGMGTVEGGDQSNPKSKKEKKKSDKRKKDKEKKEKKKKAKKASTKDSESPSQKKKKKKKKTAEQTV
B2: U2af1 (protein, UniProt Q01081 1-240)
chain: MAEYLASIFGTEKDKVNCSFYFKIGACRHGDRCSRLHNKPTFSQTIALLNIYRNPQNSSQSADGLRCAVSDVEMQEHYDEFFEEVFTEMEEKYGEVEEMNVCDNLGDHLVGNVYVKFRREEDAEKAVIDLNNRWFNGQPIHAELSPVTDFREACCRQYEMGECTRGGFCNFMHLKPISRELRRELYGRRRKKHRSRSRSRERRSRSRDRGRGGGGGGGGGGGGRERDRRRSRDRERSGRF
B3: Tex10 (protein, UniProt Q9NXF1 1-929)
chain: MTKKRKRQHDFQKVKLKVGKKKPKLQNATPTNFKTKTIHLPEQLKEDGTLPTNNRKLNIKDLLSQMHHYNAGVKQSALLGLKDLLSQYPFIIDAHLSNILSEVTAVFTDKDANVRLAAVQLLQFLAPKIRAEQISPFFPLVSAHLSSAMTHITEGIQEDSLKVLDILLEQYPALITGRSSILLKNFVELISHQQLSKGLINRDRSQSWILSVNPNRRLTSQQWRLKVLVRLSKFLQALADGSSRLRESEGLQEQKENPHATSNSIFINWKEHANDQQHIQVYENGGSQPNVSSQFRLRYLVGGLSGVDEGLSSTENLKGFIEIIIPLLIECWVEAVPPQLATPVGNGIEREPLQVMQQVLNIISLLWKLSKQQDETHKLESWLRKNYLIDFKHHFMSRFPYVLKEITKHKRKEPNKSIKHCTVLSNNIDHLLLNLTLSDIMVSLANASTLQKDCSWIEMIRKFVTETLEDGSRLNSKQLNRLLGVSWRLMQIQPNREDTETLIKAVYTLYQQRGLILPVRTLLLKFFSKIYQTEELRSCRFRYRSKVLSRWLAGLPLQLAHLGSRNPELSTQLIDIIHTAAARANKELLKSLQATALRIYDPQEGAVVVLPADSQQRLVQLVYFLPSLPADLLSRLSRCCIMGRLSSSLAAMLIGILHMRSSFSGWKYSAKDWLMSDVDYFSFLFSTLTGFSKEELTWLQSLRGVPHVIQTQLSPVLLYLTDLDQFLHHWDVTEAVFHSLLVIPARSQNFDILQSAISKHLVGLTVIPDSTAGCVFGVICKLLDHTCVVSETLLPFLASCCYSLLYFLLTIEKGEAEHLRKRDKLWGVCVSILALLPRVLRLMLQSLRVNRVGPEELPVVGQLLRLLLQHAPLRTHMLTNAILVQQIIKNITTLKSGSVQEQWLTDLHYCFNVYITGHPQGPSALATVY
B4: Ddx46 (protein, UniProt Q7L014 1-1031)
chain: MGRESRHYRKRSASRGRSGSRSRSRSPSDKRSKRGDDRRSRSRDRDRRRERSRSRDKRRSRSRDRKRLRRSRSRERDRSRERRRSRSRDRRRSRSRSRGRRSRSSSPGNKSKKTENRSRSKEKTDGGESSKEKKKDKDDKEDEKEKDAGNFDQNKLEEEMRKRKERVEKWREEQRKKAMENIGELKKEIEEMKQGKKWSLEDDDDDEDDPAEAEKEGNEMEGEELDPLDAYMEEVKEEVKKFNMRSVKGGGGNEKKSGPTVTKVVTVVTTKKAVVDSDKKKGELMENDQDAMEYSSEEEEVDLQTALTGYQTKQRKLLEPVDHGKIEYEPFRKNFYVEVPELAKMSQEEVNVFRLEMEGITVKGKGCPKPIKSWVQCGISMKILNSLKKHGYEKPTPIQTQAIPAIMSGRDLIGIAKTGSGKTIAFLLPMFRHIMDQRSLEEGEGPIAVIMTPTRELALQITKECKKFSKTLGLRVVCVYGGTGISEQIAELKRGAEIIVCTPGRMIDMLAANSGRVTNLRRVTYVVLDEADRMFDMGFEPQVMRIVDNVRPDRQTVMFSATFPRAMEALARRILSKPIEVQVGGRSVVCSDVEQQVIVIEEEKKFLKLLELLGHYQESGSVIIFVDKQEHADGLLKDLMRASYPCMSLHGGIDQYDRDSIINDFKNGTCKLLVATSVAARGLDVKHLILVVNYSCPNHYEDYVHRAGRTGRAGNKGYAYTFITEDQARYAGDIIKALELSGTAVPPDLEKLWSDFKDQQKAEGKIIKKSSGFSGKGFKFDETEQALANERKKLQKAALGLQDSDDEDAAVDIDEQIESMFNSKKRVKDMAAPGTSSVPAPTAGNAEKLEIAKRLALRINAQKNLGIESQDVMQQATNAILRGGTILAPTVSAKTIAEQLAEKINAKLNYVPLEKQEEERQDGGQNESFKRYEEELEINDFPQTARWKVTSKEALQRISEYSEAAITIRGTYFPPGKEPKEGERKIYLAIESANELAVQKAKAEITRLIKEELIRLQNSYQPTNKGRYKVL
B5: Serpinh1 (protein, UniProt P50454 19-418)
chain: AEVKKPAAAAAPGTAEKLSPKAATLAERSAGLAFSLYQAMAKDQAVENILVSPVVVASSLGLVSLGGKATTASQAKAVLSAEQLRDEEVHAGLGELLRSLSNSTARNVTWKLGSRLYGPSSVSFADDFVRSSKQHYNCEHSKINFRDKRSALQSINEWAAQTTDGKLPEVTKDVERTDGALLVNAMFFKPHWDEKFHHKMVDNRGFMVTRSYTVGVMMMHRTGLYNYYDDEKEKLQIVEMPLAHKLSSLIILMPHHVEPLERLEKLLTKEQLKIWMGKMQKKAVAISLPKGVVEVTHDLQKHLAGLGLTEAIDKNKADLSRMSGKKDLYLASVFHATAFELDTDGNPFDQDIYGREELRSPKLFYADHPFIFLVRDTQSGSLLFIGRLVRPKGDKMRDEL
B6: Kdm3a (protein, UniProt Q9Y4C1 1-1321)
chain: MVLTLGESWPVLVGRRFLSLSAADGSDGSHDSWDVERVAEWPWLSGTIRAVSHTDVTKKDLKVCVEFDGESWRKRRWIEVYSLLRRAFLVEHNLVLAERKSPEISERIVQWPAITYKPLLDKAGLGSITSVRFLGDQQRVFLSKDLLKPIQDVNSLRLSLTDNQIVSKEFQALIVKHLDESHLLKGDKNLVGSEVKIYSLDPSTQWFSATVINGNPASKTLQVNCEEIPALKIVDPSLIHVEVVHDNLVTCGNSARIGAVKRKSSENNGTLVSKQAKSCSEASPSMCPVQSVPTTVFKEILLGCTAATPPSKDPRQQSTPQAANSPPNLGAKIPQGCHKQSLPEEISSCLNTKSEALRTKPDVCKAGLLSKSSQIGTGDLKILTEPKGSCTQPKTNTDQENRLESVPQALTGLPKECLPTKASSKAELEIANPPELQKHLEHAPSPSDVSNAPEVKAGVNSDSPNNCSGKKVEPSALACRSQNLKESSVKVDNESCCSRSNNKIQNAPSRKSVLTDPAKLKKLQQSGEAFVQDDSCVNIVAQLPKCRECRLDSLRKDKEQQKDSPVFCRFFHFRRLQFNKHGVLRVEGFLTPNKYDNEAIGLWLPLTKNVVGIDLDTAKYILANIGDHFCQMVISEKEAMSTIEPHRQVAWKRAVKGVREMCDVCDTTIFNLHWVCPRCGFGVCVDCYRMKRKNCQQGAAYKTFSWLKCVKSQIHEPENLMPTQIIPGKALYDVGDIVHSVRAKWGIKANCPCSNRQFKLFSKPASKEDLKQTSLAGEKPTLGAVLQQNPSVLEPAAVGGEAASKPAGSMKPACPASTSPLNWLADLTSGNVNKENKEKQPTMPILKNEIKCLPPLPPLSKSSTVLHTFNSTILTPVSNNNSGFLRNLLNSSTGKTENGLKNTPKILDDIFASLVQNKTTSDLSKRPQGLTIKPSILGFDTPHYWLCDNRLLCLQDPNNKSNWNVFRECWKQGQPVMVSGVHHKLNSELWKPESFRKEFGEQEVDLVNCRTNEIITGATVGDFWDGFEDVPNRLKNEKEPMVLKLKDWPPGEDFRDMMPSRFDDLMANIPLPEYTRRDGKLNLASRLPNYFVRPDLGPKMYNAYGLITPEDRKYGTTNLHLDVSDAANVMVYVGIPKGQCEQEEEVLKTIQDGDSDELTIKRFIEGKEKPGALWHIYAAKDTEKIREFLKKVSEEQGQENPADHDPIHDQSWYLDRSLRKRLHQEYGVQGWAIVQFLGDVVFIPAGAPHQVHNLYSCIKVAEDFVSPEHVKHCFWLTQEFRYLSQTHTNHEDKLQVKNVIYHAVKDAVAMLKASESSFGKP
B7: Krt78 (protein, UniProt Q8N1N4 1-520)
chain: MSLSPCRAQRGFSARSACSARSRGRSRGGFSSRGGFSSRSLNSFGGCLEGSRGSTWGSGGRLGVRFGEWSGGPGLSLCPPGGIQEVTINQNLLTPLKIEIDPQFQVVRTQETQEIRTLNNQFASFIDKVRFLEQQNKVLETKWHLLQQQGLSGSQQGLEPVFEACLDQLRKQLEQLQGERGALDAELKACRDQEEEYKSKYEEEAHRRATLENDFVVLKKDVDGVFLSKMELEGKLEALREYLYFLKHLNEEELGQLQTQASDTSVVLSMDNNRYLDFSSIITEVRARYEEIARSSKAEAEALYQTKYQELQVSAQLHGDRMQETKVQISQLHQEIQRLQSQTENLKKQNASLQAAITDAEQRGELALKDAQAKVDELEAALRMAKQNLARLLCEYQELTSTKLSLDVEIATYRRLLEGEECRMSGECTSQVTISSVGGSAVMSGGVGGGLGSTCGLGSGKGSPGSCCTSIVTGGSNIILGSGKDPVLDSCSVSGSSAGSSCHTILKKTVESSLKTSITY

biological target: Biotin-FOXC1 (mouse) (UniProt Q61572); assay: affinity purification with mass spectrometry; streptavidin-agarose precipitation of biotinylated FOXC1 from nuclear extract of stable HEK293T cells (293T-Biotin-FOXC1); IP350 buffer (350 mM NaCl, 20 mM Tris-HCl pH 7.5, 0.5% NP40, 1 mM EDTA, 10% glycerin); SDS-PAGE, LC-ESI-MS/MS; proteins of the 293T-Biotin control deducted

binding | Binder
binds | B1
binds | B2
binds | B3
binds | B4
binds | B5
binds | B6
binds | B7
